Measurements taken from PMC8850199, “Structure, mechanism and lipid-mediated remodeling of the mammalian Na^+/H^+ exchanger NHA2” (Nature Structural & Molecular Biology, 2022).
Results are given in words; binding and its absence hold for the method and conditions named. Some results given as binding are weak or reduced against the parent protein; the word gives no strength. Tags and fused reporters may be left off the sequences shown.

Target: bison NHA2ΔN Asp330Ala-Gln331Ala double mutant, GFP fusion (Bison bison)
Experiment: SEC; FSEC (GFP fluorescence) of DDM-CHS solubilized membranes from S. cerevisiae AB11c; Superose 6 10/300, 20 mM Tris-HCl pH 7.5, 150 mM NaCl, 0.03% DDM

binding: binds
B1: bison NHA2ΔN Asp330Ala-Gln331Ala double mutant, GFP fusion (domain or fragment)
chain: RRRQIHACPPRGLLARVITNVTMVILLWAVVWSVTGSECLPGGNLFGIIMLFYCAIIGGKLFGLIKLPTLPPLPPLLGMLLAGFLIRNVPVISDNIQIKHKWSSALRSIALSVILVRAGLGLDSNALKKLKGVCVRLSLGPCLIEACTSAVLAYFLMGLPWQWGFMLGFVLGAVSPAVVVPSMLLLQEGGYGVEKGIPTLLMAAGSFDDILAITGFNTCLGMAFSTGSTVFNVLKGVLEVIIGVVTGLVLGFFIQYFPSSAADNLVWKRAFLVLGLSVLAVFSSTYFGFPGSGGLCTLVTAFLAGRGWASTKTDVEKVIAVAWDIFQPLLFGLIGAEVLITALRPETIGLCVATLGIAVLIRILVTYLMVCFAGFNIKEKIFISFAWLPKATVQAAIGSVALDTARSHGEKQLEGYGMDVLTVAFLSIIITAPVGSLLIGLLGPRLLQKAEQNKDEEDQGETSIQV
